Experimental data: paper PMC11229306

Target: T1, Ubiquitin-specific peptidase 8 (USP8), endogenous (human (endogenous in HCCC9810 and RBE)) (UniProt P40818)
T1 sequence: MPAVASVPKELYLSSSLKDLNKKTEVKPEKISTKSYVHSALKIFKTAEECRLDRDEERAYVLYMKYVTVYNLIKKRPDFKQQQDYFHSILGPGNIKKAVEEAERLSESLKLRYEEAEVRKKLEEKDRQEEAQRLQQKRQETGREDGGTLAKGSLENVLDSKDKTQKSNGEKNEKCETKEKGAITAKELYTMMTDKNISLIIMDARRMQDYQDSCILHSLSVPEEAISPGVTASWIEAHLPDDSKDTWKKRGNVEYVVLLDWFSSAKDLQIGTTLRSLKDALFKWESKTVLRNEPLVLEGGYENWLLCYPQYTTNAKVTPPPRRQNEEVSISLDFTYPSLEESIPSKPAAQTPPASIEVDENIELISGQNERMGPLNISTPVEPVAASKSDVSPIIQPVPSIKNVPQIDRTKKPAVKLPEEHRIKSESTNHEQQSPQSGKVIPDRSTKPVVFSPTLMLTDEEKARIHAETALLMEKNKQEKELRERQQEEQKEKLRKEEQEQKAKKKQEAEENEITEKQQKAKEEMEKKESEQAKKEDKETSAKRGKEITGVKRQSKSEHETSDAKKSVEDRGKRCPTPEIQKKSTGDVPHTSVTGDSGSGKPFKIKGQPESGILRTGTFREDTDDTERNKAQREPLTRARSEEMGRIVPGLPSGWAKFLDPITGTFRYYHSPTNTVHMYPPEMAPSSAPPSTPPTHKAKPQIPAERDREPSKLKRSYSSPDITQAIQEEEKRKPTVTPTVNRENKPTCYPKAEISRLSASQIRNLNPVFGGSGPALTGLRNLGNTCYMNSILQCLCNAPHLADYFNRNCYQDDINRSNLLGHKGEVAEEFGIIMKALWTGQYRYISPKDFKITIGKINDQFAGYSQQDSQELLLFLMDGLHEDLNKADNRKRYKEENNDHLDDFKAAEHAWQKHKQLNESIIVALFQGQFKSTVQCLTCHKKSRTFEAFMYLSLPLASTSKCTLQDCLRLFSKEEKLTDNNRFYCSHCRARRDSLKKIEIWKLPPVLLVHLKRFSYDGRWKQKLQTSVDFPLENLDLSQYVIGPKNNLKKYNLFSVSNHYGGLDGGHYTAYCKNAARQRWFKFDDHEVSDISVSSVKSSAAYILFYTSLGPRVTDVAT
Assay: affinity purification with mass spectrometry; HCCC9810 cells lysed in RIPA buffer with protease inhibitors, precleared with rabbit IgG 4 h, overnight immunoprecipitation with USP8 antibody and Protein A/G PLUS-Agarose at 4 °C, LC-MS

B1: O-GlcNAc transferase (OGT), endogenous (enzyme, UniProt O15294 1-1046)
chain: MASSVGNVADSTEPTKRMLSFQGLAELAHREYQAGDFEAAERHCMQLWRQEPDNTGVLLLLSSIHFQCRRLDRSAHFSTLAIKQNPLLAEAYSNLGNVYKERGQLQEAIEHYRHALRLKPDFIDGYINLAAALVAAGDMEGAVQAYVSALQYNPDLYCVRSDLGNLLKALGRLEEAKACYLKAIETQPNFAVAWSNLGCVFNAQGEIWLAIHHFEKAVTLDPNFLDAYINLGNVLKEARIFDRAVAAYLRALSLSPNHAVVHGNLACVYYEQGLIDLAIDTYRRAIELQPHFPDAYCNLANALKEKGSVAEAEDCYNTALRLCPTHADSLNNLANIKREQGNIEEAVRLYRKALEVFPEFAAAHSNLASVLQQQGKLQEALMHYKEAIRISPTFADAYSNMGNTLKEMQDVQGALQCYTRAIQINPAFADAHSNLASIHKDSGNIPEAIASYRTALKLKPDFPDAYCNLAHCLQIVCDWTDYDERMKKLVSIVADQLEKNRLPSVHPHHSMLYPLSHGFRKAIAERHGNLCLDKINVLHKPPYEHPKDLKLSDGRLRVGYVSSDFGNHPTSHLMQSIPGMHNPDKFEVFCYALSPDDGTNFRVKVMAEANHFIDLSQIPCNGKAADRIHQDGIHILVNMNGYTKGARNELFALRPAPIQAMWLGYPGTSGALFMDYIITDQETSPAEVAEQYSEKLAYMPHTFFIGDHANMFPHLKKKAVIDFKSNGHIYDNRIVLNGIDLKAFLDSLPDVKIVKMKCPDGGDNADSSNTALNMPVIPMNTIAEAVIEMINRGQIQITINGFSISNGLATTQINNKAATGEEVPRTIIVTTRSQYGLPEDAIVYCNFNQLYKIDPSTLQMWANILKRVPNSVLWLLRFPAVGEPNIQQYAQNMGLPQNRIIFSPVAPKEEHVRRGQLADVCLDTPLCNGHTTGMDVLWAGTPMVTMPGETLASRVAASQLTCLGCLELIAKNRQEYEDIAVKLGTDLEYLKKVRGKVWKQRISSPLFNTKQYTMELERLYLQMWEHYAAGNKPDHMIKPVEVTESA
**Q.** Which binding does the source give for B1 here?
**A.** Its binding is “binds”.

These are yes or no findings as the source states them, for the method shown. In cells and extracts the contact can be indirect. A yes stands for co-enrichment or nearness to the bait. Other partners may have been found.
